Measured values published in PMC8707672.
No constants are given. Whether binding was seen depends on the method and setting. Binding seen in cells or lysates may run through a third protein. Some entries that bind do so weakly or less than the wild type.

The chains behind the UniProt entries cited, without tags or fusion partners.
UniProt P11881: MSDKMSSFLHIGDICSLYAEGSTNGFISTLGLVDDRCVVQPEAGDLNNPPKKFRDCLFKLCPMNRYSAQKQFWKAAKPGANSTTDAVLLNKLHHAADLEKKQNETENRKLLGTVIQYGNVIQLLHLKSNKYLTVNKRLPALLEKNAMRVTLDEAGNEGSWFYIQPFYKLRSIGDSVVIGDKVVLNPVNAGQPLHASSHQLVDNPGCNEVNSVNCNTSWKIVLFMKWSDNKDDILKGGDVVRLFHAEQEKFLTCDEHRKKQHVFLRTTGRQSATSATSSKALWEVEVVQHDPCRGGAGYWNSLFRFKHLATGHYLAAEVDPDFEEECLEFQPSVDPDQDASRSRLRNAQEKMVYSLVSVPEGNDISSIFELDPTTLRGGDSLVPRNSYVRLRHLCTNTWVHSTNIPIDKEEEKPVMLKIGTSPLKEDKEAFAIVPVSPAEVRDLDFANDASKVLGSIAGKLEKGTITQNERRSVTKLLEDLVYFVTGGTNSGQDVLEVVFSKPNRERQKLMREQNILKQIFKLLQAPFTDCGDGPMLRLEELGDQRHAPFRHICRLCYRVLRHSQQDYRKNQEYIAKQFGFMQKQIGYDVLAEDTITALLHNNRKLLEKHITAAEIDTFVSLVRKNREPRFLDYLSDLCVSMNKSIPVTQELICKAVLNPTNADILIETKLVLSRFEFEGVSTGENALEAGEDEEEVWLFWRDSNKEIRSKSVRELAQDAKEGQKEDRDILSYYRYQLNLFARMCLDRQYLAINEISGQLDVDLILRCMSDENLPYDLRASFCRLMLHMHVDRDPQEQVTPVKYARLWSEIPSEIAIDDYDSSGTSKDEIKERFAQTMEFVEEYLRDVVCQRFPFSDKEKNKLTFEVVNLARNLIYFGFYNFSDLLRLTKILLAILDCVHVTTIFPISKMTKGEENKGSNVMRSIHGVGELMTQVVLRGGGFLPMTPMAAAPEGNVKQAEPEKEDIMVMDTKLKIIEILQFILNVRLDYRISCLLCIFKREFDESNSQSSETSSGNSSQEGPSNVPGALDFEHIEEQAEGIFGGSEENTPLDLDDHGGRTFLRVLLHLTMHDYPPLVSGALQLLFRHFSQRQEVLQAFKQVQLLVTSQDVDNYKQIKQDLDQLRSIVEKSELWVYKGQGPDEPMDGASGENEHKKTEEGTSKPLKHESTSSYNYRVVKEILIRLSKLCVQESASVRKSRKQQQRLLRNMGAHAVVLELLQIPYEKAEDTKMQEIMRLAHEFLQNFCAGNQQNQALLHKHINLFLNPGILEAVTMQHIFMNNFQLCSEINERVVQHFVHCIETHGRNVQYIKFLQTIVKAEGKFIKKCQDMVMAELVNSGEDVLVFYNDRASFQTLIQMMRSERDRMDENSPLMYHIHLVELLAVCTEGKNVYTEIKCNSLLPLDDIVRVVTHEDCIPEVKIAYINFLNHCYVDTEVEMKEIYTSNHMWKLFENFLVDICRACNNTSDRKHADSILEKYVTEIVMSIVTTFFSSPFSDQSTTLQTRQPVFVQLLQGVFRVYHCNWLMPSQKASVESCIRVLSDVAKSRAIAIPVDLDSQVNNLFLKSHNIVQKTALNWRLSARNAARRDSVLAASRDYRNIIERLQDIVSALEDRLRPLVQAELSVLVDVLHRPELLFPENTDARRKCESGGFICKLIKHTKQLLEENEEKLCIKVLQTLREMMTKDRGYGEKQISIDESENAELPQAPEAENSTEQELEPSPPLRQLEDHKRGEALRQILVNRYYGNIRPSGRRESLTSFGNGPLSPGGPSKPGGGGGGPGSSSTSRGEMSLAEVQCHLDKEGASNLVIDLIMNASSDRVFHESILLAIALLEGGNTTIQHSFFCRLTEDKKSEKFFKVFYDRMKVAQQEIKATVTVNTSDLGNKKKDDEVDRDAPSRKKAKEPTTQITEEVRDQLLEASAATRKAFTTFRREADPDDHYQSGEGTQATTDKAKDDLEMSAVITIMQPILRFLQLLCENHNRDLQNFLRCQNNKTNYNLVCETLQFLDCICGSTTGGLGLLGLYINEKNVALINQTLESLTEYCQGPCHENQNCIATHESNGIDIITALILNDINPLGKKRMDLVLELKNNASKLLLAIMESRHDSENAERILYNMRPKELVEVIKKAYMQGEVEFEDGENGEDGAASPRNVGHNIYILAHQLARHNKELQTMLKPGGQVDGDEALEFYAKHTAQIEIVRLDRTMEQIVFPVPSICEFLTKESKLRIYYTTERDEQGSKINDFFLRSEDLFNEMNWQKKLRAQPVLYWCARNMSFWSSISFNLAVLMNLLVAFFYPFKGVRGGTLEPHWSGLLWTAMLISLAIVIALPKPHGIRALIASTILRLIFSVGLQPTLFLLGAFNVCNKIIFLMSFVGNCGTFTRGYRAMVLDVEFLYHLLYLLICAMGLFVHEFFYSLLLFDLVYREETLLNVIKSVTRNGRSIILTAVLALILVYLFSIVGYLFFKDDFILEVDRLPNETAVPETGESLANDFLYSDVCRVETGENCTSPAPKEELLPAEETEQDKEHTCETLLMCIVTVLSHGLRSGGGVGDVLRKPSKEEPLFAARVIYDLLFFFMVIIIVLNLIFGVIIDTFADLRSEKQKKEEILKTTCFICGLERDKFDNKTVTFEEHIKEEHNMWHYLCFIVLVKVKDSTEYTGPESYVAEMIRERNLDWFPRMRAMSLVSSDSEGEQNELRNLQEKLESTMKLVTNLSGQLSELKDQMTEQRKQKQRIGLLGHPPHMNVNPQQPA
UniProt P70227: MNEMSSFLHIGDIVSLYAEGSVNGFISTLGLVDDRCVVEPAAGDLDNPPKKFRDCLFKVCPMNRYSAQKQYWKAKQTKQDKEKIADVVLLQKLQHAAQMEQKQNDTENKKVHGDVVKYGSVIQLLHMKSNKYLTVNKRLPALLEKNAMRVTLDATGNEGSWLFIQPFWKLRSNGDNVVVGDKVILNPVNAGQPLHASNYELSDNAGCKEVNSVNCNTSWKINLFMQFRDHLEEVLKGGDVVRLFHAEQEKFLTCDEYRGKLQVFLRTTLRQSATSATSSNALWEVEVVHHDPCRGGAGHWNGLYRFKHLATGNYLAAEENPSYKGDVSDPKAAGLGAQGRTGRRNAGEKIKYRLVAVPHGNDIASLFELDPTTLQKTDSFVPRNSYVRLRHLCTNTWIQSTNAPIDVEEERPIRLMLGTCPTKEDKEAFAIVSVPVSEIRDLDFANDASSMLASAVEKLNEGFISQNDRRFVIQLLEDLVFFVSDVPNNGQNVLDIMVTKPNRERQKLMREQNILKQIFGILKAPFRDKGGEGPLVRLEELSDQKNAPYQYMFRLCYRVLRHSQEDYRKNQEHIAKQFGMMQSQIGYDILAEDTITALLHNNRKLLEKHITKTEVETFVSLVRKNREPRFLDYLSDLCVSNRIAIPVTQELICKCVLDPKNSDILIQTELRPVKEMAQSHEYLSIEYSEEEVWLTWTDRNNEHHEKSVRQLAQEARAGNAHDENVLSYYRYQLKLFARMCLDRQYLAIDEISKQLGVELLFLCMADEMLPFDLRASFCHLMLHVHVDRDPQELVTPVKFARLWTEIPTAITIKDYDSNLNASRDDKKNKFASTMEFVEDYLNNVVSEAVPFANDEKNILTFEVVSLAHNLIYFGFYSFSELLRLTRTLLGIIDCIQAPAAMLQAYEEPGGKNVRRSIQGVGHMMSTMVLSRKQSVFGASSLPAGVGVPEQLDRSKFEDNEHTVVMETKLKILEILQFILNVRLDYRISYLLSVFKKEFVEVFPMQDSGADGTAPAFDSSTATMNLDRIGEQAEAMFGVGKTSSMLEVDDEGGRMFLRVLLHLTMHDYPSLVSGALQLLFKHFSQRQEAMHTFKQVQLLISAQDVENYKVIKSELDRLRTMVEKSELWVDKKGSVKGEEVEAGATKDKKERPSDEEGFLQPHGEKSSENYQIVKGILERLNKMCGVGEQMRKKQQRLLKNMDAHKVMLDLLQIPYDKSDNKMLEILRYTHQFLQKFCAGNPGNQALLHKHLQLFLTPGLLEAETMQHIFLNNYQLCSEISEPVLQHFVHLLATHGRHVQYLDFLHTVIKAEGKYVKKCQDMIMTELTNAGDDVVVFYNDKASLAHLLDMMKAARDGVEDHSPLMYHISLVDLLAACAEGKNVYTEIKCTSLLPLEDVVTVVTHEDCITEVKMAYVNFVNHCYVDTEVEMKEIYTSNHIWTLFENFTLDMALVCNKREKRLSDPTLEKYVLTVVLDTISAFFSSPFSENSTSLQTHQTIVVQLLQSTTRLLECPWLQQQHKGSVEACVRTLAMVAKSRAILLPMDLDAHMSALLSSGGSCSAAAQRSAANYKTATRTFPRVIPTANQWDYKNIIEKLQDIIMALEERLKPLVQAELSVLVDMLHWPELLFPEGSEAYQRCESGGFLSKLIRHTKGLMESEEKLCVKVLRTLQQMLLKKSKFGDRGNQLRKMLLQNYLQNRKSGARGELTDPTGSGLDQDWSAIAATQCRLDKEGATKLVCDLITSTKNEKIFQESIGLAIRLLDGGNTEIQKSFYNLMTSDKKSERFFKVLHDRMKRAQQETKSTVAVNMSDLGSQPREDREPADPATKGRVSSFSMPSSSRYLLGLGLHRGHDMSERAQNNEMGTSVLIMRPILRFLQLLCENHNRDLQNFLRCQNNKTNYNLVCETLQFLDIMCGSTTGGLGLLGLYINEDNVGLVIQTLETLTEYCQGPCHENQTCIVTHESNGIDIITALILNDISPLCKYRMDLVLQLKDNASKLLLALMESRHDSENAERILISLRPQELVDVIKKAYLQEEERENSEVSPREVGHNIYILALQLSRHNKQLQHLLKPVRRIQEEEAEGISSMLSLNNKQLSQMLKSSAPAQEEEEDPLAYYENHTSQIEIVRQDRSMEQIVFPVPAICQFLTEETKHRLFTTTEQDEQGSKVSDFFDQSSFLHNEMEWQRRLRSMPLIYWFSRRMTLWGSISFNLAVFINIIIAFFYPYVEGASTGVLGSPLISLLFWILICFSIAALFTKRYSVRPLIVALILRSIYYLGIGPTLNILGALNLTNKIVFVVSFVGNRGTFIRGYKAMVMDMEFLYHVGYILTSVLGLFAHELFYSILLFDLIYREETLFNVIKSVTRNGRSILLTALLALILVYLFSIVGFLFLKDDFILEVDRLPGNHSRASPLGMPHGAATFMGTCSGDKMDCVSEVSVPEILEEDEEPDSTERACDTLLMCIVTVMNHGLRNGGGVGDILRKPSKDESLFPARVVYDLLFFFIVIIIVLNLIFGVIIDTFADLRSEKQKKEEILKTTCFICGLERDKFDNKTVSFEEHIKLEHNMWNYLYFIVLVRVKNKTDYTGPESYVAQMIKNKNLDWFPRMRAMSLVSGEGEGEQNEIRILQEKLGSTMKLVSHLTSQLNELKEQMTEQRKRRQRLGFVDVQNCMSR

Molecular target: T1, inositol 1,4,5-triphosphate receptor-associated 2 (IRAG2) (mouse (endogenous in pancreas)) (UniProt Q60664)
T1 sequence: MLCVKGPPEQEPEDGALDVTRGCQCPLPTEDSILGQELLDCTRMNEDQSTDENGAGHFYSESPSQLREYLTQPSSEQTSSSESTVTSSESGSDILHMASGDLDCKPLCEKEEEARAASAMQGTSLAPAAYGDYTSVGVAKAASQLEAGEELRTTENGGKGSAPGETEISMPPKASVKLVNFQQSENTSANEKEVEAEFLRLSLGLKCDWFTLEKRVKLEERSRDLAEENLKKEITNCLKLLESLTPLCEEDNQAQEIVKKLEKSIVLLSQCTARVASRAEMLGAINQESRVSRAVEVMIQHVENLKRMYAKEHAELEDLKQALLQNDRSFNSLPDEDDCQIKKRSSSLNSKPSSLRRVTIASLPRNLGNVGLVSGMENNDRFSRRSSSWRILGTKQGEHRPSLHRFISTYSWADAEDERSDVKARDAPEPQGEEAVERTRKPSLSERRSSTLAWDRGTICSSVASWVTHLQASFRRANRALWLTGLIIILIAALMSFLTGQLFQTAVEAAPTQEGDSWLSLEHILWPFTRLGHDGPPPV
Experiment: co-IP; pancreas lysates of IRAG2-WT and IRAG2-KO mice; IRAG2 precipitated with 1 µg anti-IRAG2 (anti-mouse LRMP, C-terminal) antibody and Protein-A-Sepharose beads; buffer 50 mM Tris HCl, 15 mM EGTA, 100 mM NaCl, 0.1% Triton X-100, pH 7.5, 1 mM DTT; overnight at 4 °C; partners detected by Western blot

binding, binds:
inositol trisphosphate receptor type 1 (IP3R1) (from UniProt P11881 1-2749)
inositol trisphosphate receptor type 2 (IP3R2) (from UniProt Q9Z329 1-2701)
inositol trisphosphate receptor type 3 (IP3R3) (from UniProt P70227 1-2670)
